In publication PMC8094600:
These are yes or no findings as the source states them, for the method shown. In cells and extracts the contact can be indirect. Some results given as binding are weak or reduced against the parent protein; the word gives no strength.

Protein sequences, listed by entry. Tags and fused reporters are not part of them. Lines headed by an entry give the natural chain unless they say otherwise; changes in a name come on top.
UniProt P62330: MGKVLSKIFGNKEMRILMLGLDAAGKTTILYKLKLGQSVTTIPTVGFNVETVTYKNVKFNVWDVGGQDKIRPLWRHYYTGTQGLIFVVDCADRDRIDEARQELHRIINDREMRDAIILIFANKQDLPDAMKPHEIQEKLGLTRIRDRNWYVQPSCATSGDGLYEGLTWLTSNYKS

Columns and labels:
[1] = biological target: dominant negative (T44N, DN) Arf6 fused to GST (UniProt P62330); test: pull-down; recombinant GST-Arf6 (Q67L or T44N) as bait with wild type HCT116 cell lysates; Western blot and CBB stained gel; GST alone as control; only the target purified
[2] = biological target: constitutively active (Q67L, CA) Arf6 fused to GST (UniProt P62330); test: as above

B1: Pals1 (Protein associated with Lin-7 One, encoded by Membrane Protein Palmitoylated 5, MPP5) (protein, UniProt Q8N3R9 1-675)
chain: MTTSHMNGHVTEESDSEVKNVDLASPEEHQKHREMAVDCPGDLGTRMMPIRRSAQLERIRQQQEDMRRRREEEGKKQELDLNSSMRLKKLAQIPPKTGIDNPMFDTEEGIVLESPHYAVKILEIEDLFSSLKHIQHTLVDSQSQEDISLLLQLVQNKDFQNAFKIHNAITVHMNKASPPFPLISNAQDLAQEVQTVLKPVHHKEGQELTALLNTPHIQALLLAHDKVAEQEMQLEPITDERVYESIGQYGGETVKIVRIEKARDIPLGATVRNEMDSVIISRIVKGGAAEKSGLLHEGDEVLEINGIEIRGKDVNEVFDLLSDMHGTLTFVLIPSQQIKPPPAKETVIHVKAHFDYDPSDDPYVPCRELGLSFQKGDILHVISQEDPNWWQAYREGDEDNQPLAGLVPGKSFQQQREAMKQTIEEDKEPEKSGKLWCAKKNKKKRKKVLYNANKNDDYDNEEILTYEEMSLYHQPANRKRPIILIGPQNCGQNELRQRLMNKEKDRFASAVPHTTRSRRDQEVAGRDYHFVSRQAFEADIAAGKFIEHGEFEKNLYGTSIDSVRQVINSGKICLLSLRTQSLKTLRNSDLKPYIIFIAPPSQERLRALLAKEGKNPKPEELREIIEKTREMEQNNGHYFDTAIVNSDLDKAYQELLRLINKLDTEPQWVPSTWLR
[1]
  binding: binds
[2]
  binding: binds
